Data source: PubChem BioAssay AID1508597 (Cure First, 2020)
This is a random part of the about 2,100 reagents, in one setting of the screen. 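Calls flag viability under 80% in either arm, not effects specific to rucaparib; the reference for percent is not stated.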 A reagent listed more than once was tested more than once; the source does not tell the runs apart. Not stated in the record: the 100% reference.

Aim: 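Survival screen with siRNA in ovarian cancer cells derived from patients, with or without rucaparib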 (primary screen)
Cell system: human ovarian carcinoma lines grown from tumours: OCI-P5x (papillary serous) and OCI-C5x (clear cell)
Reagent: siRNA pool against human genes, 1.25 pmol siRNA per well
Duration: 72 h or 96 h, depending on the cell culture
Challenge: rucaparib 20 µM (about IC30) or vehicle, present until read-out
Rucaparib or vehicle: Rucaparib
Cell line: OCI-C5x (clear cell)
Read-out: 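Luminescent ATP-based viability assay read 72 or 96 h after transfection, depending on culture, given as normalised percent viability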
Direction: viability, normalised: higher = more viable cells remaining
Rule for the call: 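a well counts as a hit if its normalised viability is under 80 percent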
Calls: active = viability under 80%; inactive = viability 80% or more

target	PubChem SID	technical replicate	viability, normalised (%)	outcome
BRCA1 (BRCA1 DNA repair associated)	SID405526434	1	47.6	active
BRCA1 (BRCA1 DNA repair associated)	SID405526434	1	50.6	active
BRCA1 (BRCA1 DNA repair associated)	SID405526434	2	45.2	active
BRCA1 (BRCA1 DNA repair associated)	SID405526434	2	41.3	active
BRCA1 (BRCA1 DNA repair associated)	SID405526434	3	38.9	active
BRCA1 (BRCA1 DNA repair associated)	SID405526434	3	36.2	active
NTHL1 (nth like DNA glycosylase 1)	SID405528271	1	31.2	active
NTHL1 (nth like DNA glycosylase 1)	SID405528271	2	33.7	active
NTHL1 (nth like DNA glycosylase 1)	SID405528271	3	30.2	active
UNC93B1 (unc-93B1 regulator of TLR signaling)	SID405526609	1	49.6	active
UNC93B1 (unc-93B1 regulator of TLR signaling)	SID405526609	2	53.2	active
UNC93B1 (unc-93B1 regulator of TLR signaling)	SID405526609	3	39.6	active
RAD23B (RAD23 nucleotide excision repair protein B)	SID405528316	1	36.7	active
RAD23B (RAD23 nucleotide excision repair protein B)	SID405528316	2	33.2	active
RAD23B (RAD23 nucleotide excision repair protein B)	SID405528316	3	47.1	active

2 entries already listed, ordered by “viability, normalised (%)”, descending:
target	PubChem SID	technical replicate	viability, normalised (%)	outcome
NTHL1 (nth like DNA glycosylase 1)	SID405528271	2	33.7	active
NTHL1 (nth like DNA glycosylase 1)	SID405528271	1	31.2	active

Continued:
target	PubChem SID	technical replicate	viability, normalised (%)	outcome
SATB2 (SATB homeobox 2)	SID405527273	1	35.8	active
SATB2 (SATB homeobox 2)	SID405527273	2	31.3	active
SATB2 (SATB homeobox 2)	SID405527273	3	24.4	active
CDX4 (caudal type homeobox 4)	SID405528088	1	85	inactive
CDX4 (caudal type homeobox 4)	SID405528088	2	97	inactive
CDX4 (caudal type homeobox 4)	SID405528088	3	104	inactive
ACTR6 (actin related protein 6)	SID405527949	1	41.2	active
ACTR6 (actin related protein 6)	SID405527949	2	42.6	active
ACTR6 (actin related protein 6)	SID405527949	3	48.9	active
